Measured values published in article PMC9122589.
For at least one entry, the source does not settle the construct or the ends of the probe. Weaker means in comparison with the reference protein, sequence or condition of that experiment.

Target: BrxR R47A (Acinetobacter sp. NEB394) (UniProt A0A7H8SL41)
Experiment: EMSA
Conditions: legend: significant reduction, text: site-specific binding eliminated; EMSA: 20 mM Tris pH 7.9, 40 mM NaCl, 2.5% sucrose, 22 C, 30 min; 20 nM DNA (10 nM in Fig S6), 25-800 nM BrxR; 7% native gel in TBE; recombinant protein; protein details: N-terminal His6 removed by thrombin

“GCGGAGTCCATCCAAACATCGGGAGATTTTGATCAGATATGTTTAACCTGCCCTCACAATACCGTAAAAATAATTTACTGTATATTCATTGTAGGGTAGTCTTGATCACATTGTTTATTGACCGATTGTTCTATGACAGCAGACAAGCATGAAGTGCTTCTCAGAATGAGGGCGATTGAGTTACTGGCCTACTGGGAAGGGCGTTTG (double strand) [BREX upstream region -109/+98 (~200 bp)]”: binds more weakly.
